Assay results: patent US20220288277A1, “SURFACE COATINGS AND IMPLANTABLE DEVICES COMPRISING DIMERIC STEROID PRODRUGS, AND USES THEREOF” (Ripple Therapeutics Corporation, priority 2019, published 2022)
At least one compound was matched to its structure with a doubt left.

Experiments:
device related fibrosis = experiment: Rat study of coated polymeric discs, collagenous capsule wall thickness (Masson's Trichrome); assay type: in vivo, female Wistar rats; details: drop coated discs, subcutaneous, day 7 and day 21, versus non-coated implants
From the text: The coatings were dried at ambient conditions over night and sterilized using Ethylene oxide (ETO) gas. Coated substrates were then implanted into the dorsal subcutaneous space in female Wistar rats with starting weights of 250-290 g. Animals were euthanized at day 7 (inflammatory phase) and day 21 (fibrotic phase) to assess the tissue response to coated versus non-coated implants. The thickness of the collagenous capsule wall surrounding the implant was quantified by morphometric image analysis on cross-section of excised capsules with associated tissue that were stained with Masson's Trichrome.

[1] = Drug release from coated surfaces and extruded cylinders in PBS at 37 C, monitored by HPLC; assay type: physicochemical; details: drop coated on SIBS, titanium, Dacron mesh, glass
From the text: As stated herein, “t50” is the time at which 50% of the releasable drug has been released from a surface coating or drug depot of the disclosure. Time t10 is, correspondingly, the time at which 10% of the releasable drug has been released from a surface coating or drug depot of the disclosure. When the release curve is perfectly linear, t10=⅕ of t50. When there is an initial burst of released drug, t10 is much less than ⅕ of t50. In the compositions and methods of the disclosure t10 can be equal to or greater than 1/10 of t50. Drug release from a surface coating, drug depot, or compound of the disclosure can be measured at 37° C. in 100% bovine serum, or at 37° C. in PBS (phosphate buffered saline), as described in Example 1. […]
Compound 2 was dissolved in DCM and was drop coated onto the bottom of a glass vial and solvent was evaporated to form the surface coating. Drug release was carried out in PBS at 37 C with buffer changes and was monitored by HPLC.
Compound 3 was dissolved in DCM and was drop coated onto the bottom of a glass vial and solvent was evaporated to form the surface coating. Drug release was carried out in PBS at 37 C with buffer changes and was monitored by HPLC. […]

[2] = In vitro drug release profiles from coated discs; assay type: physicochemical; details: coated discs (FIG. 18B)

With `C[C@@H]1C[C@H]2[C@@H]3CCC4=CC(=O)C=C[C@]4(C)[C@@]3(F)[C@@H](O)C[C@]2(C)[C@@]1(O)C(=O)CO` [Dexamethasone, reference compound] the “Capsule wall diameter (fibrotic layer thickness)” value (device related fibrosis) was “did not show any difference to non-coated discs”, the “Drug release from the coated surfaces” value [1] was “burst release” and the “In vitro drug release profile” value [2] was “burst release”.
